Data reported in patent US20170182108A1, “FERMENTED FOOD EXTRACT COMPOSITION” (priority 2014, published 2017).
At least one compound was matched to its structure with a doubt left.

Test system: systolic blood pressure of SHRs
Experiment: single oral administration test to SHRs (blood pressure by tail cuff method)
Format: in vivo, rat (spontaneously hypertensive rat
Details: single oral 10^−11 mol/kg, SHR; measured 3, 6, 9 and 24 h after administration
Method: Animal experiments were carried out according to the animal experiment guidelines of Shinshu University. In the present study, spontaneously hypertensive rats of 10-13 week-old males (SHR/NCrlCrlj, Charles River Laboratories Japan, Yokohama) were used as an experimental animal. SHRs were bred in individual cages in a breeding room controlled with a light-dark cycle of […] and a room temperature of 22-23° C. In acclimation breeding, rat standard diet (MF; Charles River Laboratories) and tap water were fed ad libitum. SHRs are a rat strain that has been isolated in 1963 by selection mating from Wistar-Kyoto rats that had been bred in the animal experimentation center of Kyoto University. They are referred to as spontaneously hypertensive rats or essential hypertensive rats; while systolic blood pressure of the separation maternal. […]
Single oral administration test was carried out using male 12-week-old SHRs with a body weight of 280-320 g. […] Changes in the systolic blood pressure and diastolic blood pressure were measured using non-invasive blood pressure measuring instrument Softron BP-98A (Softron Co., Ltd., Tokyo) by tail cuff method, before administration and at 3, 6, 9, and 24 h after administration. […]

SMILES: CC(=O)OCC[N+](C)(C)C [acetylcholine]
- blood pressure effect compared to the control group: significant vasodilatory effect
